# Source: PubChem BioAssay AID1347076 (National Center for Advancing Translational Sciences (NCATS), 2019)
# The whole screen tested about 400,000 compounds, of which about 13,000 (3.2%) were called active. This list was built around the results that the source calls inconclusive (neither active nor inactive); the mix of calls is not that of the screen. The call rests on the fitted dose curve; in most records, active means well fitted cell-killing curve with a large enough effect; inconclusive means small, poorly fitted or top-dose-only effect, or effect the other way; inactive means flat fitted curve, though single readings scatter. A potency beside an inconclusive call is a rough fit, not a confirmed value.
# Experiment: qHTS assay for MDR1-selective chemotherapeutics: Primary screen using the drug-selected MDR subline cells KB-V1; further: nearly all actives have a fitted effect of over 60% in size
# Conditions: KB-V1 MDR cells viability, CellTiter-Glo, 72 h; activity change, negative = cytotoxicity: at 46.1 µM (top of the series)
# Summary of the method: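 Drug-selected KB-V1 cells, grown in DMEM lacking phenol red with 10% FBS, receive compound titrations; after three days at 37 degrees C, surviving cell ATP is quantified by CellTiter-Glo luminescence and responses normalized and curve-fitted.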
# On the % scale 0 is the no-effect control and ±100 the full control effect; potency means the concentration at half of the fitted maximal effect.
Structure (SMILES),"activity change, negative = cytotoxicity",Potency
Cc1noc(Cn2c(=O)c3ccccc3n(CC(=O)Nc3ccccc3C(F)(F)F)c2=O)n1,inactive: 2.84%,
COCCNc1nc(CSc2ccccc2)nc2sc(C)c(C)c12,,active: 10.3 µM
Cc1cccc(-n2ncc3c(Nc4c(C)cc(C)cc4C)ncnc32)c1,,"inconclusive: 13 µM [cytotoxic, partial curve, poor fit]"
CCOCCCn1c(=N)c(C(=O)NC2CCCC2)cc2c(=O)n3cccc(C)c3nc21,inactive: 10.4%,
c1ccc(CCn2c3ccccc3c3nnc(SCc4ccc5nonc5c4)nc32)cc1,,"inconclusive: 2.59 µM [cytotoxic, partial curve]"
Cc1nnc2c3ccccc3nc(N3CCN(c4cccc(Cl)c4)CC3)n12,,"inconclusive: 18.4 µM [cytotoxic, single point]"
COc1cc(/C=C/C(=O)OCC(=O)N2c3ccccc3NC(=O)C2(C)C)cc(OC)c1OC,,"inconclusive: 20.6 µM [cytotoxic, single point]"
CCCCOc1ccc(C2c3c(oc4ccccc4c3=O)C(=O)N2c2nc(C)c(C(=O)OCC)s2)cc1OC (stereo not drawn),inactive: 15.7%,
CCc1ccc(NC(=O)c2ccc3c(c2)c(C)c(C)n3Cc2ccccc2)cc1,,active: 8.2 µM
COC(=O)c1ccc2nc(-c3ccc(OC)c(OC)c3)c(Cc3ccccc3)n2c1,inactive: -3.03%,
Cc1c(C(=O)Nc2ccc(Cl)cc2)c2ccccn2c1C(=O)c1ccccc1,,"inconclusive: 9.2 µM [cytotoxic, single point]"
O=C(NC(c1ccccc1)c1ccc2ccccc2n1)C1CCN(CCOc2ccc(Cl)cc2Cl)CC1 (stereo not drawn),,"inconclusive: 25.9 µM [cytotoxic, partial curve, poor fit]"
O=C1CSc2ccc(S(=O)(=O)N3CCN(c4ccccc4F)CC3)cc2N1,inactive: -10%,
CC(C)(C)OC(=O)N(CCc1ccccc1)Cc1ccc(OCc2cccc(NC(=O)C3CC3)c2)cc1,,"inconclusive: 13 µM [cytotoxic, partial curve, poor fit]"
COc1ccc(NC(=O)c2cc(-c3cc(C)cc(C)c3O)n[nH]2)cc1Cl,,"inconclusive: 20 µM [cytotoxic, single point]"
Cc1ccc(CNC(=O)CN(CCc2ccccc2)S(C)(=O)=O)cc1,,"inconclusive: 29.1 µM [cytotoxic, single point]"
CCCCC(=O)N/N=C/c1sccc1C,,"inconclusive: 9.2 µM [rising, partial curve]"
COc1cc(/C=N/Nc2nc3ccccc3[nH]2)ccc1O,,active: 18.4 µM
CN(CC(=O)NCc1ccc2c(c1)OCO2)S(=O)(=O)c1ccc(Cl)cc1,inactive: -0.102%,
COc1ccc(S(=O)(=O)N2CCN(C(=O)C3CC(=O)N(c4ccccc4F)C3)CC2)cc1OC (stereo not drawn),,"inconclusive: 29.1 µM [rising, single point]"
C=CCn1c(C)nc2c(sc3nc4c(cc32)COC(C)(C)C4)c1=O,,"inconclusive: 2.91 µM [rising, full curve, poor fit]"
COc1ccc(Nc2nc(-c3cccnc3)nc3ccccc23)cn1,,"inconclusive: 23.1 µM [cytotoxic, partial curve, poor fit]"
COC(=O)CNC(=O)C1CC(=O)N(CCc2ccc(F)cc2)C1 (stereo not drawn),,"inconclusive: 0.291 µM [cytotoxic, partial curve, poor fit]"

Structure (SMILES),"activity change, negative = cytotoxicity",Potency
CC1=C(C(=O)OCC2CCCO2)C(c2ccccc2)C2=C(CC(C)(C)CC2=O)N1 (stereo not drawn),,"inconclusive: 9.2 µM [cytotoxic, partial curve]"
CC12CN3CC(C)(CN(C1)C3c1ccc(OCc3ccccc3)cc1)C2=O (stereo not drawn),inactive: 16.5%,
CC(CC(=O)Nc1ccc2c(c1)c(=O)n(C)n2-c1ccccc1)c1ccccc1 (stereo not drawn),,active: 10.3 µM
CC1=C(c2ccc(Cl)cc2)S(=O)(=O)NC1=NCc1ccc(C)cc1,inactive: 25.8%,
C=CCC1(CC=C)CCCN1C(=O)c1cc(COc2ccc(F)c(F)c2)on1,inactive: -24.2%,
CCCn1c(N)c(C(=O)CSc2ncc(C(F)(F)F)cc2Cl)c(=O)[nH]c1=O,,"inconclusive: 20.6 µM [cytotoxic, single point]"
O=C1CCCCC1Nc1ccc(Cl)cc1 (stereo not drawn),,"inconclusive: 11.6 µM [cytotoxic, partial curve]"
O=S(=O)(c1ccc(Cl)cc1)N1CCN(CCc2ccccc2)CC1,inactive: 1.57%,
COc1ccc(CCNC(=O)Cn2cccc2C(=O)c2ccccc2)cc1OC,,"inconclusive: 14.6 µM [cytotoxic, partial curve, poor fit]"
COc1ccc(C(=O)c2ccc(C)cc2)c(OC)c1OC,,"inconclusive: 16.4 µM [cytotoxic, single point]"
Cc1ccc(CCNC(=O)c2ccc(CSCc3ccc(C)cc3)o2)cc1,inactive: -21.8%,
O=C(N/N=C/c1ccc(Cl)c([N+](=O)[O-])c1)c1cc(-c2ccc3c4c(cccc24)CC3)n[nH]1,,"inconclusive: 29.1 µM [cytotoxic, single point]"
Cn1c(C(=O)N2CCC(C(=O)NCCc3ccc(S(N)(=O)=O)cc3)CC2)cc2sccc21,inactive: 0.15%,
CNc1nc2c(c(=O)n(C)c(=O)n2C)n1CCCc1ccccc1,,active: 8.2 µM
CCCOC(=O)c1[nH]c2c(c1C)C(=O)CC(c1ccc(OC)c(OC)c1)C2 (stereo not drawn),,"inconclusive: 5.17 µM [cytotoxic, full curve]"
O=C(c1csc2c1CCCC2)N1CCN(c2cccc(C(F)(F)F)c2)CC1,,active: 20.6 µM
COCCNC(=O)CN(C(=O)CCC(=O)Nc1ccccn1)c1ccc(C)cc1C,inactive: 8.65%,
O=C(CN1c2cccc3cccc(c23)S1(=O)=O)Nc1ccccc1,,"inconclusive: 23.1 µM [cytotoxic, single point]"
CC(C)(C)C(O)(CC#CCN1CCCC1)c1ccccc1 (stereo not drawn),inactive: -19.2%,
O=C(CC1C(=O)NCCN1C(=O)Nc1ccccc1)Nc1ccc2c(c1)OCO2 (stereo not drawn),,"inconclusive: 16.4 µM [rising, partial curve, poor fit]"
N=C1/C(=C/c2ccc(OCc3ccccc3F)cc2)C(=O)N=C2SC(CC(=O)N3CCOCC3)=NN12,,"inconclusive: 18.4 µM [rising, single point]"
CCCCNC(=O)C1c2ccccc2OCC(=O)N1Cc1ccccc1 (stereo not drawn),inactive: -32%,
Cc1ccc(C(=O)Nc2ccccc2C(=O)N2CC3(C)CC2CC(C)(C)C3)cc1 (stereo not drawn),,"inconclusive: 23.1 µM [cytotoxic, partial curve, poor fit]"

# Full records, looked up by structure.
# `CC12CN3CC(C)(CN(C1)C3c1ccc(OCc3ccccc3)cc1)C2=O` (stereo not drawn) is listed as activity change, negative = cytotoxicity: inactive: 16.5%
# `CC(CC(=O)Nc1ccc2c(c1)c(=O)n(C)n2-c1ccccc1)c1ccccc1` (stereo not drawn) is listed as Potency: active: 10.3 µM
# `Cc1ccc(C(=O)Nc2ccccc2C(=O)N2CC3(C)CC2CC(C)(C)C3)cc1` (stereo not drawn) is listed as Potency: inconclusive: 23.1 µM [cytotoxic, partial curve, poor fit]
# `CNc1nc2c(c(=O)n(C)c(=O)n2C)n1CCCc1ccccc1` is listed as Potency: active: 8.2 µM

# (next part)

Structure (SMILES),"activity change, negative = cytotoxicity",Potency
CCc1nnc(NC(=O)CSCc2cc(=O)n3nc(C)sc3n2)s1,inactive: 24.9%,
CC(=O)c1ccc(N(C(=O)c2ccco2)C(C(=O)NC2CCCC2)c2ccc(N3CCOCC3)cc2)cc1 (stereo not drawn),inactive: 0%,
CCc1ccc(NC(=O)Cn2c(=O)ccc3cc(S(=O)(=O)N4CCCC4)ccc32)cc1,inconclusive: -38.2% [cytotoxic],
O=C(CCc1ccc(Oc2cc([N+](=O)[O-])cc([N+](=O)[O-])c2)cc1)N1CCCCCC1,,"inconclusive: 5.8 µM [cytotoxic, partial curve]"
Cc1ccccc1S(=O)(=O)N(C)C[C@@H]1OCc2cnnn2CCCC(=O)N([C@H](C)CO)C[C@@H]1C,,"inconclusive: 29.1 µM [rising, single point]"
Cc1ccc(NC(=O)CSc2nnc(CNC(=O)c3ccco3)n2C)cc1,inactive: -6.39%,
COc1ccc(S(=O)(=O)N2CCCCCC2)cc1C(=O)N(C)Cc1cccc(OC)c1OC,,"inconclusive: 16.4 µM [cytotoxic, partial curve]"
Cc1ccc(CCNC(=O)CCc2nc3ccccc3[nH]2)cc1,,"inconclusive: 20.6 µM [cytotoxic, partial curve]"
Cc1c(C)c2ccc(OCC(=O)NCCN3CCOCC3)c(C)c2oc1=O,inconclusive: -17%,
Cc1ccc(N(C)S(=O)(=O)c2cccc(C(=O)NCC(c3ccco3)N3CCCC3)c2)cc1 (stereo not drawn),inactive: -14%,
O=C(CSc1nc2c(c(=O)[nH]1)CCC2)Nc1ccccc1Cl,,"inconclusive: 1.84 µM [rising, full curve]"
COc1ccc(NC(=O)/C(Cl)=C(/Cl)S(=O)Cc2ccc(Cl)cc2)cn1 (stereo not drawn),,active: 5.8 µM
C[C@@H]1CN([C@H](C)CO)C(=O)c2c(c3ccccc3n2C)-c2ccccc2CO[C@@H]1CN(C)C(=O)Nc1ccc2c(c1)OCO2,,"inconclusive: 9.2 µM [rising, partial curve, poor fit]"
Cc1ccc([N+](=O)[O-])cc1NC(=O)CN(C(=O)c1ccc(Cl)cc1)C1CCCCC1,,active: 23.1 µM
O=C1Nc2cc(Cl)ccc2Oc2cc(Oc3ccccc3)ccc21,,"inconclusive: 16.4 µM [cytotoxic, single point]"
Cc1c(CN2CCC(CO)(CCOc3ccccc3)CC2)[nH]c2c(Cl)cccc12,,"inconclusive: 16.4 µM [cytotoxic, partial curve]"
COCCn1c(-c2ccc(Cl)cc2)cnc1SCC(=O)NCc1cccs1,,"inconclusive: 32.6 µM [cytotoxic, single point]"
Cc1ccc(C)c(CN2C(=O)c3ccccc3S(=O)c3ccc(C(=O)NCc4ccco4)cc32)c1 (stereo not drawn),,"inconclusive: 32.6 µM [cytotoxic, single point]"
Cc1cc(C(F)F)nn1CC(=O)NC1C(=O)N2C(C(=O)O)=C(CSc3nnnn3C)CSC12 (stereo not drawn),,"inconclusive: 29.1 µM [rising, partial curve, poor fit]"
Cc1ccc(NC(=O)c2cc(-c3ccccc3)nn2-c2ccccc2)cc1,,active: 20.6 µM
O=C(COc1ccccc1-c1ccccc1)N/N=C/c1cccc2ccccc12,,active: 0.92 µM
Cc1ccc(C)c(N(C(=O)c2nsc(Cl)c2Cl)C(C(=O)NC2CCCC2)c2ccc(O)cc2)c1 (stereo not drawn),,"inconclusive: 16.4 µM [cytotoxic, single point]"
